The values that follow come from paper PMC11585782, “The Plastidial Protein Acetyltransferase GNAT1 Forms a Complex With GNAT2, yet Their Interaction Is Dispensable for State Transitions” (Molecular & Cellular Proteomics : MCP, 2024).

Amino acid sequences for entries named in this document (tags omitted). Residues count along the entry.
UniProt Q7X9V3, residues 59-258: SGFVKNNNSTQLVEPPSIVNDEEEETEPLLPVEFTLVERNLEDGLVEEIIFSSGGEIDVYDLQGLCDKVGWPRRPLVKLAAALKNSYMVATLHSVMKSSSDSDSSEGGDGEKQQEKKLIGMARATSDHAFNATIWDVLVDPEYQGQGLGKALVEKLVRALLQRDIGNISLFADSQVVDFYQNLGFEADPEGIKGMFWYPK

No constants are given. Whether binding was seen depends on the method and setting. In cells and extracts the contact can be indirect. Some entries that bind do so weakly or less than the wild type. Sequences can lack the tags named with a protein.

Test [1] concerns the target GNAT2 C-terminally fused to a split-YFP domain (Arabidopsis thaliana) (UniProt Q7X9V3). Nature of the test: split reporter; BiFC in transiently transformed Arabidopsis Col-0 protoplasts; GNATs C-terminally fused to the N- or C-terminal domain of split-YFP; YFP read by confocal laser scanning microscopy after 8 to 24 h.
Test [2] addresses T1, GNAT3 C-terminally fused to a split-YFP domain (Arabidopsis thaliana) (UniProt Q940H2).
T1 sequence: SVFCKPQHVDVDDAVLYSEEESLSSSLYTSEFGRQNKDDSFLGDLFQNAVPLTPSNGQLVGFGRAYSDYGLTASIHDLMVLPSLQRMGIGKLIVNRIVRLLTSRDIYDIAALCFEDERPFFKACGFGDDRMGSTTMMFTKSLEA
The test is described as above.

B1: GNAT3 C-terminally fused to a split-YFP domain (enzyme, UniProt Q940H2 94-237)
chain: T1 sequence
For B1, the binding entry in test [1] was “binds”.

B2: GNAT1 C-terminally fused to a split-YFP domain (enzyme, UniProt Q9C666 38-197)
chain: AMQRKPPSYSISDEDLESRGFLLRRTTEGLNLDQLNSVFAAVGFPRRDTAKIEVALQHTDALLWVEYEKTRRPVAFARATGDGVFNAIIWDVVVDPSFQSCGLGKAVMERLIEDLQVKGICNIALYSEPRVLGFYRPLGFVSDPDGIKGMVFIRKQRNKK
As for B2, the binding entry is listed as “binds” in test [1] and “no binding” in test [2].
